Literature values as cited in patent US20230406911A1, “COMPOSITIONS AND METHODS FOR PREVENTING, INHIBITING, DISRUPTING, OR TREATING A POLYMICROBIAL BIOFILM” (priority 2020, published 2023).
At least one structure is not confirmed: it was looked up by name or label, or the drawing left a doubt.

Test system: established NTHI biofilms
Details: antibiotic at concentrations ≥4-fold below the MIC; Brockson et al., 2014; cited from earlier work

C=CC1=C(C(=O)O)N2C(=O)[C@@H](NC(=O)/C(=N\O)c3csc(N)n3)[C@H]2SC1 [cefdinir]
sensitivity to killing of NTHI biofilms co-exposed to anti-DNABII antiserum, compared to planktonic counterparts: significantly more sensitive
